{
  "sequences": {"note": "By UniProt entry, the sequences of proteins in these tests, tags left out.", "UniProt Q16620, whole entry, looked up": "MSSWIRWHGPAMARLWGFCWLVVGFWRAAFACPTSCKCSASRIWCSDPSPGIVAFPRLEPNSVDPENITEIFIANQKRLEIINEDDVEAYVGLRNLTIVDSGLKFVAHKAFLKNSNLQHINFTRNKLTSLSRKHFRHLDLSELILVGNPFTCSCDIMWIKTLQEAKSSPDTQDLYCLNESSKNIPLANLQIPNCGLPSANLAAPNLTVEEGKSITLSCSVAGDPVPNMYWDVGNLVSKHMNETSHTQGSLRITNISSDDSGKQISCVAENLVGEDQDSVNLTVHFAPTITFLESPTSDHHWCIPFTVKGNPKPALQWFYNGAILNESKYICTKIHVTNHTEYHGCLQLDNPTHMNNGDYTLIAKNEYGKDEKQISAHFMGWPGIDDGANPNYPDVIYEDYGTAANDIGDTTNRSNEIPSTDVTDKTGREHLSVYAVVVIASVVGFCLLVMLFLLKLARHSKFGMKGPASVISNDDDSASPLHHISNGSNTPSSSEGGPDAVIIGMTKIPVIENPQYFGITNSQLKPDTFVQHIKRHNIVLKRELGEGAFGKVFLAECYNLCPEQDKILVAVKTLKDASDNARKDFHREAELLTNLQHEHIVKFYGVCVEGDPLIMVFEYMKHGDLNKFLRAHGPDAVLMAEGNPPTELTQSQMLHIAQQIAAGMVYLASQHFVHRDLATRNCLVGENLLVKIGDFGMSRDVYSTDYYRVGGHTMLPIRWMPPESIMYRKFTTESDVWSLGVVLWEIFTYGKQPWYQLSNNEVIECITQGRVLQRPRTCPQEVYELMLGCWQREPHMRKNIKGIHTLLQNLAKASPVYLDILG", "UniProt Q16288, whole entry, looked up": "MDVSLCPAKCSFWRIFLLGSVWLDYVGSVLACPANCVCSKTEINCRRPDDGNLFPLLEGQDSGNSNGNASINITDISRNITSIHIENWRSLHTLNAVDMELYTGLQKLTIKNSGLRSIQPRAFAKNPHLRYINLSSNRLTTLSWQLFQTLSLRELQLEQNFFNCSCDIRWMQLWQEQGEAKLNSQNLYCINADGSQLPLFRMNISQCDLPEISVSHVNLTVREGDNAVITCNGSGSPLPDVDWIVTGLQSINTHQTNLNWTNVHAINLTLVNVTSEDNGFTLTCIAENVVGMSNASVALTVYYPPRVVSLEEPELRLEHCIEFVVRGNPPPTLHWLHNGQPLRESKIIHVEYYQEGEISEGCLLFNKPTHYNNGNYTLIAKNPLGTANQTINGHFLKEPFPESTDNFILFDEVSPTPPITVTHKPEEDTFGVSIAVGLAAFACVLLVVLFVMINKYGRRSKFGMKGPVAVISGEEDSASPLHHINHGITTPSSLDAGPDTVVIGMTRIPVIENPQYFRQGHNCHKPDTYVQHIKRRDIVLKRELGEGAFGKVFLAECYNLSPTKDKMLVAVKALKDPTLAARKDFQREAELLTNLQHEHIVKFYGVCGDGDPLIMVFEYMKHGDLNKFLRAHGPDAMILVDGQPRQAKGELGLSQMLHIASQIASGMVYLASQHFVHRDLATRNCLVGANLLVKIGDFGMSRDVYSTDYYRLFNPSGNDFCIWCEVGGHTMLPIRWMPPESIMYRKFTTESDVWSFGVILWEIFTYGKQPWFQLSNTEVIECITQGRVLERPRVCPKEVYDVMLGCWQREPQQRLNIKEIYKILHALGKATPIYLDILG"},
  "source": "the supplement of paper PMC12823440",
  "about": "“Inhibitors supercharge kinase turnover through native proteolytic circuits” (Nature, 2025)",
  "note": "Where a name gives a salt, the structure may show the parent alone. Some of the results follow. Hit calls seldom repeat between salt and free forms of one compound.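 Kinases were expressed as nanoluciferase fusions in K562 cells and luminescence was read every 4 h between 2 and 18 h as percent of control, DMSO set to 100% and a positive control to 0%. A time point counts as decreased when the signal drops significantly (2 sigma). The hit call is the authors' own, does not follow from the count of time points alone, and its rule is not shown.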",
  "data": [
    {"molecular_target": "NTRK2 (UniProt Q16620)", "test": "kinase-Nluc reporter destabilization hit call (1 = scored as downregulated) (binary); higher = compound decreases kinase abundance", "settings": "K562; 2-18 h", "values": [
      {"smiles": "Cc1cccc(-c2[nH]c(C(C)(C)C)nc2-c2ccc3c(c2)OCO3)n1", "note": "(2.5 µM)", "kinase-Nluc reporter destabilization hit call": "inactive: 0"},
      {"smiles": "Cc1cccc(Cn2nc(C)c3c(NC(=O)c4csc5c(N)ncnc45)cccc32)n1", "note": "(10 µM)", "kinase-Nluc reporter destabilization hit call": "inactive: 0"},
      {"smiles": "CC[C@@H]1CN(C(=O)NCC(F)(F)F)C[C@@H]1c1cnc2cnc3[nH]ccc3n12", "note": "[Upadacitinib] (10 µM)", "kinase-Nluc reporter destabilization hit call": "inactive: 0"},
      {"smiles": "CNS(=O)(=O)C[C@H]1CC[C@H](N(C)c2[nH]cnc3nccc2-3)CC1", "note": "[Oclacitinib (maleate)] (10 µM)", "kinase-Nluc reporter destabilization hit call": "inactive: 0"},
      {"smiles": "COc1cc(-c2cnc(N)c(-c3ccc(NC(=O)c4cn(CC5CCOCC5)cc(-c5ccc(C)cn5)c4=O)cc3F)c2)ccc1OC[C@H]1COCCO1", "note": "[DS-1205b (free base)] (10 µM)", "kinase-Nluc reporter destabilization hit call": "inactive: 0"}
    ]},
    {"molecular_target": "NTRK3 (UniProt Q16288)", "test": "kinase-Nluc reporter destabilization hit call (1 = scored as downregulated) (binary); higher = compound decreases kinase abundance", "settings": "K562; 2-18 h", "values": [
      {"smiles": "C=CC(=O)N1CCC[C@@H](n2c(=O)n(-c3ccc(Oc4ccccc4)cc3)c3c(N)nccc32)C1", "note": "[Tolebrutinib] (10 µM)", "kinase-Nluc reporter destabilization hit call": "inactive: 0"},
      {"smiles": "C[C@]1(O)C[C@@](N)(c2ccc(-c3nc4n(c3-c3ccccc3)COc3ccncc3-4)cc2)C1", "note": "[TAS-117 (hydrochloride)] (10 µM)", "kinase-Nluc reporter destabilization hit call": "inactive: 0"},
      {"smiles": "CCOC(=O)C1=C[C@]2(CC)CCCN3CCc4c(n1c1ccccc41)[C@@H]32", "note": "[Vinpocetine] (10 µM)", "kinase-Nluc reporter destabilization hit call": "inactive: 0"},
      {"smiles": "CC(C)(C)NS(=O)(=O)c1cncc(-c2cc(F)c3nc(N)nn3c2)c1", "note": "(10 µM)", "kinase-Nluc reporter destabilization hit call": "inactive: 0"},
      {"smiles": "CC(C)(C)c1ccc(C(=O)Nc2cn3cc(-n4ccnc4)ccc3n2)cc1", "note": "(10 µM)", "kinase-Nluc reporter destabilization hit call": "inactive: 0"},
      {"smiles": "Cc1nc(NC(=O)N2CCC[C@H]2C(N)=O)sc1-c1csc(C(C)(C)C)n1", "note": "(10 µM)", "kinase-Nluc reporter destabilization hit call": "inactive: 0"},
      {"smiles": "N#Cc1cn([C@@H]2O[C@H](CO)[C@@H](O)[C@H]2O)c2nc[nH]c(=O)c12", "note": "[Jaspamycin] (10 µM)", "kinase-Nluc reporter destabilization hit call": "inactive: 0"},
      {"smiles": "Cc1ccc(-c2csc(Cn3nc(CC4OCCCO4)c4ccccc4c3=O)n2)cc1", "note": "(10 µM)", "kinase-Nluc reporter destabilization hit call": "inactive: 0"},
      {"smiles": "CNC(=O)c1c(C)oc2cc(Oc3ncnc4cc(OC)c(OC)cc34)ccc12", "note": "[Fruquintinib] (10 µM)", "kinase-Nluc reporter destabilization hit call": "inactive: 0"},
      {"smiles": "O=S(=O)(N=Cc1c(O)ccc2ccccc12)c1cccs1", "note": "(10 µM)", "kinase-Nluc reporter destabilization hit call": "inactive: 0"},
      {"smiles": "NC(=O)c1cccc2c(N[C@H](CN3CCC3)c3ccc(Cl)c(C(F)(F)F)c3)ncnc12", "note": "(10 µM)", "kinase-Nluc reporter destabilization hit call": "inactive: 0"},
      {"smiles": "CN1CCC(c2ccccc2CC(C)(C)Nc2nc(N3CCOCC3)nc(-n3c(S(C)(=O)=O)nc4ccccc43)n2)CC1", "note": "(10 µM)", "kinase-Nluc reporter destabilization hit call": "inactive: 0"},
      {"smiles": "O=c1ccc2cc(O)c(O)cc2o1", "note": "[Esculetin] (10 µM)", "kinase-Nluc reporter destabilization hit call": "inactive: 0"},
      {"smiles": "O=C(Nc1nc2cccc(-c3ccc(CN4CCS(=O)(=O)CC4)cc3)n2n1)C1CC1", "note": "[Filgotinib] (2.5 µM)", "kinase-Nluc reporter destabilization hit call": "inactive: 0"},
      {"smiles": "CC(C)(O)c1cc2nc(-c3cnc(N)nc3)nc(N3CCOCC3)c2s1", "note": "(2.5 µM)", "kinase-Nluc reporter destabilization hit call": "inactive: 0"},
      {"smiles": "Cn1cc(-c2ccc3ncc(Cc4ccc5ncccc5c4)n3n2)cn1", "note": "(10 µM)", "kinase-Nluc reporter destabilization hit call": "inactive: 0"},
      {"smiles": "CC(=O)c1cc(O)ccc1O", "note": "[2,5-Dihydroxyacetophenone] (10 µM)", "kinase-Nluc reporter destabilization hit call": "inactive: 0"},
      {"smiles": "COc1ccc(COc2cc3oc(=O)c4cc(C(C)O)ccc4c3cc2OC)cc1", "note": "(stereo not drawn) [Palomid 529] (2.5 µM)", "kinase-Nluc reporter destabilization hit call": "inactive: 0"},
      {"smiles": "O=C(CC(c1ccccc1)C(C(=O)O)C(=O)O)c1ccc(C(F)(F)F)cc1", "note": "(stereo not drawn) (10 µM)", "kinase-Nluc reporter destabilization hit call": "inactive: 0"},
      {"smiles": "CC(C)[C@H](CO)Nc1nc(Nc2ccc(C(=O)O)c(Cl)c2)c2ncn(C(C)C)c2n1", "note": "[Purvalanol B] (10 µM)", "kinase-Nluc reporter destabilization hit call": "inactive: 0"},
      {"smiles": "COc1cc2nccc(Oc3ccc(NC(=O)Nc4ccc(F)cc4F)c(F)c3)c2cc1OC", "note": "(10 µM)", "kinase-Nluc reporter destabilization hit call": "inactive: 0"},
      {"smiles": "N#C/C(=C\\c1ccc[nH]1)c1ccc(Cl)c(Cl)c1", "note": "(2.5 µM)", "kinase-Nluc reporter destabilization hit call": "inactive: 0"},
      {"smiles": "O=c1cc(-c2ccc(O)cc2)oc2cc(O)c(O)c(O)c12", "note": "[Scutellarein] (10 µM)", "kinase-Nluc reporter destabilization hit call": "inactive: 0"},
      {"smiles": "CC(C)n1nc(C#Cc2ccccc2)c2c(N)ncnc21", "note": "(10 µM)", "kinase-Nluc reporter destabilization hit call": "inactive: 0"},
      {"smiles": "O=C(N=c1sccn1Cc1ccccc1)c1c[nH]c2ncccc12", "note": "(10 µM)", "kinase-Nluc reporter destabilization hit call": "inactive: 0"},
      {"smiles": "CC(C)=C/C=C1\\O[C@@H]2CC(C)=CC(=O)[C@@H]2[C@]1(C)O", "note": "[Bisabolangelone] (10 µM)", "kinase-Nluc reporter destabilization hit call": "inactive: 0"},
      {"smiles": "COc1ccc(C2CC(c3ccc(Cl)cc3)=NN2c2nc(-c3ccncc3)cs2)cc1", "note": "(stereo not drawn) [mTOR inhibitor-8] (10 µM)", "kinase-Nluc reporter destabilization hit call": "inactive: 0"},
      {"smiles": "Cc1cc(F)c(Nc2ncnc3cc(OCc4ccccc4)ccc23)cc1O", "note": "(10 µM)", "kinase-Nluc reporter destabilization hit call": "inactive: 0"},
      {"smiles": "CNCCOc1ccccc1C(C)(C)Nc1nccn(-c2cc(C(=O)NC3CC3)ccc2C)c1=O", "note": "[p38α inhibitor 2] (10 µM)", "kinase-Nluc reporter destabilization hit call": "inactive: 0"},
      {"smiles": "CCn1c(-c2nonc2N)nc2c(C#CCO)ncc(OCCCN)c21", "note": "[AKT Kinase Inhibitor] (10 µM)", "kinase-Nluc reporter destabilization hit call": "inactive: 0"},
      {"smiles": "NC(=O)c1nc(-c2c(F)cccc2Cl)oc1Nc1ccc(C(=O)N2CCOCC2)cc1", "note": "(10 µM)", "kinase-Nluc reporter destabilization hit call": "inactive: 0"},
      {"smiles": "O=C(NCc1cccc(O)c1)c1cc2cc(F)ccc2[nH]1", "note": "(10 µM)", "kinase-Nluc reporter destabilization hit call": "inactive: 0"},
      {"smiles": "Cc1nc(Nc2ncc(C(=O)Nc3c(C)cccc3Cl)s2)cc(N2CCN(C(=O)CCCCCCC(=O)N[C@H](C(=O)N3C[C@H](O)C[C@H]3C(=O)NCc3ccc(-c4scnc4C)cc3)C(C)(C)C)CC2)n1", "note": "(2.5 µM)", "kinase-Nluc reporter destabilization hit call": "inactive: 0"},
      {"smiles": "Cc1cccc(-c2[nH]c(C(C)(C)C)nc2-c2ccc3c(c2)OCO3)n1", "note": "(2.5 µM)", "kinase-Nluc reporter destabilization hit call": "inactive: 0"},
      {"smiles": "Cc1cccc(Cn2nc(C)c3c(NC(=O)c4csc5c(N)ncnc45)cccc32)n1", "note": "(10 µM)", "kinase-Nluc reporter destabilization hit call": "inactive: 0"},
      {"smiles": "CC[C@@H]1CN(C(=O)NCC(F)(F)F)C[C@@H]1c1cnc2cnc3[nH]ccc3n12", "note": "[Upadacitinib] (10 µM)", "kinase-Nluc reporter destabilization hit call": "inactive: 0"},
      {"smiles": "CNS(=O)(=O)C[C@H]1CC[C@H](N(C)c2[nH]cnc3nccc2-3)CC1", "note": "[Oclacitinib (maleate)] (10 µM)", "kinase-Nluc reporter destabilization hit call": "inactive: 0"},
      {"smiles": "COc1cc(-c2cnc(N)c(-c3ccc(NC(=O)c4cn(CC5CCOCC5)cc(-c5ccc(C)cn5)c4=O)cc3F)c2)ccc1OC[C@H]1COCCO1", "note": "[DS-1205b (free base)] (10 µM)", "kinase-Nluc reporter destabilization hit call": "inactive: 0"}
    ]}
  ]
}
